Experimental data published in PubChem BioAssay AID504834 (National Center for Advancing Translational Sciences (NCATS), 2011).
Hit rate of the full screen: of about 320,000 compounds, about 22,000 (6.9%) were called active. This list was built around the results that the source calls inconclusive (neither active nor inactive); the mix of calls is not that of the screen. Calls follow the shape of the dose curve; as a rule, active = well fitted inhibition curve with a large enough effect; inconclusive = small, poorly fitted or top-dose-only effect, or another doubt; inactive = no such curve, though single readings can be large or run the other way. Where the call is inconclusive, the potency comes from a doubtful curve fit.

Assay: Primary qHTS for delayed death inhibitors of the malarial parasite plastid, 96 hour incubation
Settings: P. falciparum luciferase reporter growth; series mostly up to 28.7 µM; activity change, negative = inhibition: at the top concentration
How it was run: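 Readout is luminescence from an integrated firefly luciferase in P. falciparum. Red cells, 2% hematocrit and 0.05% parasitemia final, were cultured with compound through two parasite generations (96 hours) at 37 C, 5% CO2.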
% is scaled to controls: 0 for no effect and ±100 for the full control effect; potency is read from the fitted curve at half-maximal effect.

Structure (SMILES)	activity change, negative = inhibition	Potency
CCOC(=O)C1CCCN(S(=O)(=O)c2cnc(Cl)c(Br)c2)C1 (stereo not given)	inactive: 39.4%	–
Cc1cc(C)n2nc3nc4c(cc3c2n1)CCCC4	–	inconclusive: 0.522 µM [inhibitor, full curve, poor fit]
COc1cccc(/C=C2/Sc3ccc(C(=O)NCCN4CCCCCC4)cc3NC2=O)c1	–	inconclusive: 18.5 µM [inhibitor, single point]
O=C(NCCCC(NC(=O)OCc1ccccc1)C(=O)O)OCc1ccccc1 (stereo not given)	–	active: 6.57 µM
Cc1ccc(S(=O)(=O)N2CCN(S(=O)(=O)c3ccccc3)C2c2ccc(N(C)C)cc2)cc1 (stereo not given)	–	inconclusive: 0.0657 µM [inhibitor, full curve, poor fit]
COc1cccc(/C=N/Nc2ncnc3scc(-c4ccccc4)c23)c1OC	–	inconclusive: 13.1 µM [inhibitor, partial curve, poor fit]
CC(C)CCNC(=O)CN(Cc1ccc2c(c1)OCO2)C(=O)CCC(=O)Nc1ccccn1	inactive: 15.8%	–
O=C(Nc1cccc(S(=O)(=O)N2CCOCC2)c1)c1ccc2c(=O)n3c(nc2c1)CCCCC3	–	inconclusive: 18.5 µM [inhibitor, single point]
Cc1cc2nc(SCC(=O)O)nc(C)c2cc1C	–	inconclusive: 13.1 µM [inhibitor, single point]
CC/C(O)=C1\C(=O)CC(C)(C)CC1=NCCc1nc2ccccc2[nH]1	–	inconclusive: 8.28 µM [inhibitor, single point]
N#Cc1ccccc1OCC(=O)NCc1ccccc1CN1CCCC1	–	inconclusive: 11.7 µM [inhibitor, single point]
Cc1cccc(N(C(=O)CS(=O)CC(=O)Nc2ccc3c(c2)OCO3)C(C)C(=O)NC2CCCC2)c1C (stereo not given)	–	inconclusive: 14.7 µM [inhibitor, partial curve, poor fit]
CCCOC(=O)c1ccc(OCC(O)Cn2c(C)nc3ccccc32)cc1 (stereo not given)	–	inconclusive: 4.65 µM [inhibitor, partial curve, poor fit]
O=C(NCC1CCCO1)c1ccc2c(c1)N(Cc1ccccc1)C(=O)CS2=O (stereo not given)	inactive: -16.1%	–
O=C(c1[nH]ncc1-c1ccc(Cl)cc1)C1CO1 (stereo not given)	–	inconclusive: 7.38 µM [inhibitor, partial curve, poor fit]
CO/N=C/NC(=O)Cc1cn(-c2ncc(C(F)(F)F)cc2Cl)c2ccccc12	inactive: -31.8%	–
CN=c1scc(-c2ccc(F)cc2)n1/N=C/c1ccc(O)c(O)c1	–	inconclusive: 16.5 µM [inhibitor, single point]
O=C(NN=C1CCCCCC1)c1ccc2c(c1)OCO2	inactive: 27.7%	–
O=C1C(Cl)=C(Nc2ccc(F)cc2)C(=O)N1CCc1ccccc1	–	inconclusive: 13.1 µM [inhibitor, single point]
O=C1CC(N2CCOCC2)C(=O)N1Cc1ccc(N2CCCC2=O)cc1 (stereo not given)	inactive: 173%	–
COCc1nn2c(N)c(-c3ccccc3)cnc2c1-c1ccccc1	–	inconclusive: 9.28 µM [inhibitor, single point]
COc1ccc(C(CNC(=O)CNC(=O)c2cc(OC)c(OC)c(OC)c2)N2CCOCC2)cc1 (stereo not given)	inactive: 52.4%	–
Cc1ccc(NC(=O)c2c3c(nc4ccccc24)CCC3)cc1S(=O)(=O)N(C)C	–	inconclusive: 0.262 µM [inhibitor, full curve, poor fit]

Ordered by SMILES length (largest number first): part of the list above.
Structure (SMILES)	activity change, negative = inhibition	Potency
COc1ccc(C(CNC(=O)CNC(=O)c2cc(OC)c(OC)c(OC)c2)N2CCOCC2)cc1 (stereo not given)	inactive: 52.4%	–
CC(C)CCNC(=O)CN(Cc1ccc2c(c1)OCO2)C(=O)CCC(=O)Nc1ccccn1	inactive: 15.8%	–
COCc1nn2c(N)c(-c3ccccc3)cnc2c1-c1ccccc1	–	inconclusive: 9.28 µM [inhibitor, single point]

(listing goes on)

Structure (SMILES)	activity change, negative = inhibition	Potency
Cc1ccccc1-c1nn(-c2ccc(F)cc2F)cc1CNC1CC1	–	inconclusive: 10.4 µM [inhibitor, single point]
O=C(CN1C(=O)NC2(CCCC2)C1=O)Nc1cccc(-c2nnc3n2CCCCC3)c1	–	active: 7.38 µM
Cc1ccc(S(=O)(=O)N2CCCCC2)cc1NC(=O)CNc1ccc(C(F)(F)F)cc1	–	inconclusive: 18.5 µM [inhibitor, single point]
CCOc1ccc(N(CC(=O)NCc2ccc(OC)cc2)S(=O)(=O)c2c(C)[nH]c(=O)[nH]c2=O)cc1	–	inconclusive: 18.5 µM [inhibitor, single point]
Cn1cc(CN2C[C@]3(C)C[C@H]2CC(C)(C)C3)c(-c2ccc3c(c2)OCCO3)n1	–	inconclusive: 9.28 µM [inhibitor, single point]
O=C(O)c1ccc(NC(=S)NC(NC(=O)c2ccco2)C(Cl)(Cl)Cl)cc1 (stereo not given)	inactive: -20.2%	–
O=C(NC1CCCC1)c1ccc(CS(=O)(=O)Cc2ccccc2F)o1	–	inconclusive: 2.62 µM [inhibitor, full curve]
CCN1CCCC1CNC(=O)c1ccc(Sc2ccccc2Cl)c([N+](=O)[O-])c1 (stereo not given)	inactive: 2%	–
CC(C)N(CC#CCC(O)(c1ccccc1)c1ccccc1)CCO	–	inconclusive: 18.5 µM [inhibitor, single point]
CC1(C)S/C(=N/N=C/c2cccs2)NC1=O	–	inconclusive: 20.8 µM [inhibitor, partial curve, poor fit]
O=C(CCc1nc2ccccc2s1)Nc1ccccc1	inactive: 16%	–
O=C(NN=C1CCCCCC1)c1cc(-c2ccccc2)nc2ccccc12	–	inconclusive: 0.037 µM [inhibitor, full curve, poor fit]
O=C(N/N=C/c1ccc(O)c(O)c1)c1ccc(-n2cnnn2)cc1	–	inconclusive: 18.5 µM [inhibitor, single point]
COC(=O)c1ccc(C)c(NC(=O)CCSc2ccc(C)cc2)c1	–	inconclusive: 11.7 µM [inhibitor, single point]
COc1ccc(CCNC(=O)C(=O)NCC2OCCN2C(=O)c2ccc(Cl)cc2)cc1OC (stereo not given)	–	inconclusive: 18.5 µM [inhibitor, single point]
COc1cc(C(N)=O)cc(Br)c1OC	inactive: 15.6%	–
O=C(C[n+]1cccc(Br)c1)c1ccc(-c2ccccc2)cc1	inactive: 24.5%	–
COc1ccc(C(=O)NC2CC2)cc1OC1CCN(Cc2ccc(F)cc2)CC1	–	inconclusive: 18.5 µM [inhibitor, single point]
CCN(CC)CCn1c(=S)[nH]c2cc(C(=O)NCc3ccccc3Cl)ccc2c1=O	inactive: 96.2%	–
CCc1ccccc1-n1nnc(-c2ccccc2)n1	inactive: 49%	–
CCOC(=O)c1ccc(OS(=O)(=O)c2ccccc2)c(OC)c1	inactive: 351%	–
CC1(C)CCC[C@]2(C)[C@H]3CC(=O)O[C@]3(C)CC[C@@H]12	inactive: 39.8%	–
